Source: the supplement of paper PMC12819154, “High-throughput peptide-centric local stability assay extends protein–ligand identification to membrane proteins, tissues and bacteria” (Nature Structural & Molecular Biology, 2025)
The other results are listed elsewhere or left out. Most entries show no effect beyond the scatter of the controls.

Sequences of proteins named here, by UniProt entry; tags and fusion partners are left off. A change or cut given only in a name is not applied to a line headed by its entry.
UniProt Q80X73, whole entry: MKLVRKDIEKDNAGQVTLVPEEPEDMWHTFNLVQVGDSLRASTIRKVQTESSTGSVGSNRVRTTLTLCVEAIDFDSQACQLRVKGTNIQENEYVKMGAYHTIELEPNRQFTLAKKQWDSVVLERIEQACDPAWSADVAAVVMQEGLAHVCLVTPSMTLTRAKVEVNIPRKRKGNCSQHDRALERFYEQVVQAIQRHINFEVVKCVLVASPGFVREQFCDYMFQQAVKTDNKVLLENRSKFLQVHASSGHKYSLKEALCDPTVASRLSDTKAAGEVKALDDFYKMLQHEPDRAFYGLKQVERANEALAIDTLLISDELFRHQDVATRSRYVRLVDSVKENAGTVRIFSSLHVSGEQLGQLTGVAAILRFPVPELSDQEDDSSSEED
UniProt Q80YT7: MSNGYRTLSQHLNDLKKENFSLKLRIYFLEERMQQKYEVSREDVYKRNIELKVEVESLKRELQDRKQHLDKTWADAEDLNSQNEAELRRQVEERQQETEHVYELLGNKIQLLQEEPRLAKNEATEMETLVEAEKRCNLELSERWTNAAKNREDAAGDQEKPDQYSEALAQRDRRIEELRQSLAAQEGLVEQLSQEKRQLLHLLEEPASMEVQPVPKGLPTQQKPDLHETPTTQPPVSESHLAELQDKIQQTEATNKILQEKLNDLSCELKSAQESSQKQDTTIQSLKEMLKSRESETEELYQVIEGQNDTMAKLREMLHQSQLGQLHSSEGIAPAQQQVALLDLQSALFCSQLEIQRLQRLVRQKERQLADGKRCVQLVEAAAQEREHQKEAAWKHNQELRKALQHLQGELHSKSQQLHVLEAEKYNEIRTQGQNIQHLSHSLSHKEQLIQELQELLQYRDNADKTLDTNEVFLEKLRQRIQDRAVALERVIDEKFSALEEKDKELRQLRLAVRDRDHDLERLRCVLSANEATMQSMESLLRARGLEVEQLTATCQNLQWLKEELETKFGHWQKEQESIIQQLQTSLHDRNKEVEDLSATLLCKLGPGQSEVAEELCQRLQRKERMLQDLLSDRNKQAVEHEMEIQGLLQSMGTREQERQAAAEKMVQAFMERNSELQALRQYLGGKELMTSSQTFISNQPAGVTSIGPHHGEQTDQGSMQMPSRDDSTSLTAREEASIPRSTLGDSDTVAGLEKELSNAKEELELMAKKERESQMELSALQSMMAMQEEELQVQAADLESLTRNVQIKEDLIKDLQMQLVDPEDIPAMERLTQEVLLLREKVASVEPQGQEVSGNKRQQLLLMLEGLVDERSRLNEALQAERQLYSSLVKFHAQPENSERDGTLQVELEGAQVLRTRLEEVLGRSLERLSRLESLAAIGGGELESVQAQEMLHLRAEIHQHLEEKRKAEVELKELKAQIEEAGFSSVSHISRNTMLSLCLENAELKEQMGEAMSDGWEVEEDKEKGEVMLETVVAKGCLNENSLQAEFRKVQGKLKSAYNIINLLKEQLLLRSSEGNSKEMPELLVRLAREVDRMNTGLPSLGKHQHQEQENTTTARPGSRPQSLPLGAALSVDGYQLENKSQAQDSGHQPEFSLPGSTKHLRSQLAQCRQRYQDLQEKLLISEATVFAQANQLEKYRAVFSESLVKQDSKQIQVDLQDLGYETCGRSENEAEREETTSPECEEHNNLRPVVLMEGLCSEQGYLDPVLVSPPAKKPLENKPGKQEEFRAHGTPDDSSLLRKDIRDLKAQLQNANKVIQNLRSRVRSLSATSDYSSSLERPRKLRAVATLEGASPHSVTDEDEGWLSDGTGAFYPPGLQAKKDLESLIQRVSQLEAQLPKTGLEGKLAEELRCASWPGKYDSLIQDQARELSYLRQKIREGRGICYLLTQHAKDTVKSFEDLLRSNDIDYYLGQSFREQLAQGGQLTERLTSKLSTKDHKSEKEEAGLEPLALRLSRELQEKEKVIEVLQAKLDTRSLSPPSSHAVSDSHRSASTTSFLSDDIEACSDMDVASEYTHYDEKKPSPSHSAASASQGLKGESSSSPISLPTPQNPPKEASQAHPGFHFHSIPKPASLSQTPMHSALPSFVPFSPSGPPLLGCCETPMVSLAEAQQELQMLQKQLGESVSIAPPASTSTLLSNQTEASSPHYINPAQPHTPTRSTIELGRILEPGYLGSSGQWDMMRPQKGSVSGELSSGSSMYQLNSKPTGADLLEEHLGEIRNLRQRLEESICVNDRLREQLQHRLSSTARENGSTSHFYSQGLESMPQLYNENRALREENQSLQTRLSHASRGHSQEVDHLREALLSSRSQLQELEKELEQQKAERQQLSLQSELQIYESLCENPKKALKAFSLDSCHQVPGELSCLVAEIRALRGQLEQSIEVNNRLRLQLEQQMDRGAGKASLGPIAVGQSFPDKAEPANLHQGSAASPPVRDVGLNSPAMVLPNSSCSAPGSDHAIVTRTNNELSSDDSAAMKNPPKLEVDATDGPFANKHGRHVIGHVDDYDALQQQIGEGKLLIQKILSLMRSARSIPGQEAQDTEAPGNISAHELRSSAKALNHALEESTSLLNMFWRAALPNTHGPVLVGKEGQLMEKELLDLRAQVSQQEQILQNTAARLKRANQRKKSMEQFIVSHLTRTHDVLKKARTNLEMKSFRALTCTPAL
UniProt Q8BGT6: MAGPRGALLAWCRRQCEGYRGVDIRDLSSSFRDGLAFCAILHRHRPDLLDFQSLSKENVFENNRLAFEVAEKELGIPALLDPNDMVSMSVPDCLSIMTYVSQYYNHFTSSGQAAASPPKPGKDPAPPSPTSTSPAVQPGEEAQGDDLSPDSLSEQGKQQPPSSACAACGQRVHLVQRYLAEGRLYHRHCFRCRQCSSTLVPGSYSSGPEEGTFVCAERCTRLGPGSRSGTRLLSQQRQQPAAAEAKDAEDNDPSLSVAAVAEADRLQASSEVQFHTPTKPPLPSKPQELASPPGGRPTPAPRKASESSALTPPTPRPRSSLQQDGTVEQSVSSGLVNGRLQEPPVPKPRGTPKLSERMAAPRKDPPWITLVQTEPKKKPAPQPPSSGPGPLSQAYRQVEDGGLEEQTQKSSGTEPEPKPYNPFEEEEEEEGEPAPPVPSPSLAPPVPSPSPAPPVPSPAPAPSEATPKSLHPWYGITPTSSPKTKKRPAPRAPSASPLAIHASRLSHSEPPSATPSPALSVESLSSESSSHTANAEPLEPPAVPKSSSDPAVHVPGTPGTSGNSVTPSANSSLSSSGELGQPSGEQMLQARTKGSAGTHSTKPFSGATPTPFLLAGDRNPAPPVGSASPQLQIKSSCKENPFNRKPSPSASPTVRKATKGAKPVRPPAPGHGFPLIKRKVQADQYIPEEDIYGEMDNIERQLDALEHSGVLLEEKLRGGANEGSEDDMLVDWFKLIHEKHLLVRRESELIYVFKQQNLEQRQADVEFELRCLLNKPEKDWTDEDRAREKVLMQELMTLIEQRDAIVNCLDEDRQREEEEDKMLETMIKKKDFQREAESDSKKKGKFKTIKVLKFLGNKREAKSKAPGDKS
UniProt Q8BGV8: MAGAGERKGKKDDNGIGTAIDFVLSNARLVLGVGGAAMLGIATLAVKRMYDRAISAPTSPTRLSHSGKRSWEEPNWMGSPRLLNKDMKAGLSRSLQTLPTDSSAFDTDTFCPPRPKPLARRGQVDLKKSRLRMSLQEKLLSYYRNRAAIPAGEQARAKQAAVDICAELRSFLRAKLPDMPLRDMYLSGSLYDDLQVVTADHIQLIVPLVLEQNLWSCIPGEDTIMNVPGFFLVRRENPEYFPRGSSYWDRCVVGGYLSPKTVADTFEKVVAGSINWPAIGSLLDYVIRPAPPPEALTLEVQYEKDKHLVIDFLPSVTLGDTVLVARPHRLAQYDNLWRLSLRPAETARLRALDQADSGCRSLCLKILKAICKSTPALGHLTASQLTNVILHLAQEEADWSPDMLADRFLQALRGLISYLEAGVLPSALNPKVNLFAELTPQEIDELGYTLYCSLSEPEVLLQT

Compound: CN[C@@H]1C[C@H]2O[C@@](C)([C@@H]1OC)n1c3ccccc3c3c4c(c5c6ccccc6n2c5c31)C(=O)NC4 [staurosporine]
Experiment: log2 fold change of tryptic peptide abundance, ligand vs vehicle (limited proteolysis) (log2 ratio); higher = more trypsin-susceptible (destabilized)
Settings: ligand concentration: 20 uM; sample: mouse liver crude lysate; replicate design: treated separately

Target | log2 fold change
UniProt Q8BFZ3 (peptide sequence: GIHETTFNSIMK, peptide start residue: 274) | 0.0568
UniProt Q80X73 (peptide sequence: CVLVASPGFVR, peptide start residue: 204) | 0.0804
UniProt Q80YT7 (peptide sequence: MLQDLLSDRNK, peptide start residue: 626) | -0.68
UniProt Q8BGT6 (peptide sequence: GAKPVRPPAPGHGFPLIK, peptide start residue: 660) | 0.347
UniProt Q8BGV8 (peptide sequence: LLNKDMK, peptide start residue: 82) | -0.312
